These are yes or no findings as the source states them, for the method shown. Some results given as binding are weak or reduced against the parent protein; the word gives no strength.
Key:
DIP-δplasmin [1] = target: T1, DIP-δplasmin (UniProt P00747 97-810, limits assumed, active site blocked with diisopropylfluorophosphate (DFP)); test: SPR (FIG. 13)
T1 construct: domain: protease domain and the first kringle domain; immobilised on a CM5 chip

By UniProt entry, the sequences of proteins in these tests, tags left out. Where a name states a change or a piece, a line headed by the entry shows the natural chain unless it says otherwise. Chains listed by the source or under a name are the forms on record and can include a tag or linker.
DIP-δplasmin (P00747, form named): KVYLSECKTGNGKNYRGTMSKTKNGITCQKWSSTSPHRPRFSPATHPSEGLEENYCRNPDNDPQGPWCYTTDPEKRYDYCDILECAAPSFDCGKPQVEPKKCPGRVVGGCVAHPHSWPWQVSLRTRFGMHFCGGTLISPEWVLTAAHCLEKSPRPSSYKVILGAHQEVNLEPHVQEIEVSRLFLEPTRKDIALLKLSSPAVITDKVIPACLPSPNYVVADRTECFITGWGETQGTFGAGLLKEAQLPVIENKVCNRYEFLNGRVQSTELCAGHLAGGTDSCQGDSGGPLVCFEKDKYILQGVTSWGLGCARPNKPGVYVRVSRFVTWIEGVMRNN

DIP-δplasmin [2] = target: T1, DIP-δplasmin; test: SPR (Biacore T100), DIP-δplasmin amine-coupled to a CM5 chip, KD1-Y11T/L17R-KT as analyte [A]

B1: KD1-Y11T/L17R-KT (Pichia) (designed binder)
chain: NAEICLLPLDTGPCRARLLRYYYDRYTQSCRQFLYGGCEGNANNFYTWEACDDACWRIEK
notes: 60-residue double mutant without tag; also called KD1DM; P. pastoris expressed KD1-Y11T/L17R-KT
In the case of B1, the binding (DIP-δplasmin [1]) is reported as “binds” and the binding (DIP-δplasmin [2]) is reported as “binds”.

— patent publication US20230331817A1 (The Regents of the University of California, priority 2020, published 2023)
